Screen size: about 6,900 compounds; fewer than 10 were called active. The call rests on the fitted dose curve; in most records, active means well fitted curve in the direction sought with a large enough effect; inconclusive means small, poorly fitted or top-dose-only effect, or another doubt; inactive means no such curve, though single readings can be large or run the other way. The list shows a part of the results.
Molecular target: Metallo-beta-lactamase type 2 (Klebsiella pneumoniae) (UniProt C7C422)
Assay: qHTS to identify inhibitors of the New Delhi Metallo-beta-lactamase (NDM): primary screen against the NCATS Gemini Collection; further: % of control where 0% means no effect
Conditions: NDM-1 enzyme, meropenem hydrolysis, absorbance 300 nm; at 38.4 µM (top of the series) unless noted
Procedure, shortened: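 Meropenem hydrolysis (50 uM final) by 2 nM NDM-1 read as 300 nm absorbance after 30 min, following >30 min compound–enzyme preincubation in HEPES pH 7.0 with 1 uM ZnSO4 and 0.01% Tween20.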

Protein sequences, listed by entry. Tags and fused reporters are not part of them. Lines headed by an entry give the natural chain unless they say otherwise; changes in a name come on top.
UniProt C7C422: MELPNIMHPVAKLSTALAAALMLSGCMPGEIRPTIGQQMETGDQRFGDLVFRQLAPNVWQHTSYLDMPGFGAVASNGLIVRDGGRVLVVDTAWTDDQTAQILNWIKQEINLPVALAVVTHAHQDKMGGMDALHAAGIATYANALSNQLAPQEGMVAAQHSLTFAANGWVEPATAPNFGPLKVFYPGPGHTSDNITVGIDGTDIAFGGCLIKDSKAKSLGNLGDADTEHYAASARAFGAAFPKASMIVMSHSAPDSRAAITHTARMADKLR

Activity % (negative = inhibition), inactive:
O=C(N1CCCCC1)C1(c2ccc(Cl)cc2)CCOCC1 0.0752%
CC(C)Oc1ccc2c(NC(=O)c3ccc(=O)n(C)n3)nn(CC(F)(F)F)c2c1 18.6%
Cc1ccc(C)c(CC(=O)NCc2cc3n(n2)CCN(C(=O)N(C)C)C3)c1 -10.3%
COc1ccc(CN2C[C@@H](F)[C@@H](OCc3nc4ccncc4[nH]3)C2)cc1 5.8% [at 57.5 µM]
COc1ccc(NC(=O)C2CCCN(c3cnn(Cc4ccccc4)c(=O)c3)C2)cc1OC (stereo not drawn) 2.94%
c1coc(-c2ccnc3nc(C4CCC4)nn23)c1 9.61%
Cc1cc(C)n(-c2cccc(CN(C)C(=O)c3cn(Cc4ccc(Cl)cc4)nn3)c2)n1 9.75%
Cc1noc(C)c1-c1ccc2c(n1)CN(Cc1nc3ccccc3s1)C(=O)CO2 3.25% [at 57.5 µM]
Cc1noc2ncnc(N3CCC4(CC3)CC(c3ccccc3)CN(C)C4)c12 (stereo not drawn) 19.8%
CNC(=O)[C@@H]1CN(C(=O)CCc2cccc(OC)c2)C[C@H]1c1nc(C)no1 -9.57%
O=C(CN1C(=O)C2(CCNCC2)Nc2ccccc21)NC1CCCCCC1 3.33%
CC1(c2cccnc2)N(CC2CC2)C(=O)OC12CCN(C(=O)c1cccc(O)c1)CC2 (stereo not drawn) -2.88% [at 57.5 µM]
CN(C)Cc1nnc(C2CC(NC(=O)c3nc4ccccc4[nH]3)C2)n1C (stereo not drawn) 17%
CN(CCc1ccccn1)C(=O)c1ccc2c(c1)[nH]c(=O)n2C1CCC(O)CC1 (stereo not drawn) 12.3%
COc1ccc(-c2cc(C[C@@H]3CC[C@H](O)[C@@H](CNC4CCN(C(C)=O)CC4)O3)no2)cc1 2%
O=C(N1CCC(NS(=O)(=O)c2cccs2)CC1)N1CC2CC(C1)[C@H]1CCCC(=O)N1C2 (stereo partly drawn) -2.64%
Fc1ccccc1-c1noc(N2CCCCC2)n1 1.7%
COc1cccc(C(=O)Nc2ccc(-c3ccc(OC)nn3)cc2)c1 20.5%
O=C(Cc1ccccc1)NCC1CCCCC(=O)N1 (stereo not drawn) 8.97%
Cc1cc(C(=O)N2CCc3ncnc(N4CCOCC4)c3CC2)n(C)n1 23%
CCCc1cc(N2CCC(NCc3c(F)cccc3Cl)CC2)nc(C)n1 5.08%
COC[C@H]1CCCN1C(=O)C[C@@H]1O[C@H](CNS(C)(=O)=O)[C@@H](O)[C@H]1O 11.8% [at 57.5 µM]
COc1ccc(F)cc1-c1cccc(C(=O)NCC(=O)N2CCN(C)CC2)c1 -0.0041%
COc1cc(CN2CCN(c3noc(C(C)C)n3)CC2CCO)cc(OC)c1 (stereo not drawn) 0.477%
O=C(Cc1ccccc1)N1CCCC2(CC(c3cccc(C(F)(F)F)c3)=NO2)C1 (stereo not drawn) 11.8%
COc1ccccc1OCCNC(=O)C1CCN(c2cc(C(F)(F)F)nc(C)n2)CC1 3.98%
COc1cccc(CN2CCOC[C@H](O)C2)c1 8.9% [at 77.1 µM]
COc1ccccc1-c1cc(C(=O)N2CCOCC2)nn2cccc12 4.4%
CCOC(=O)c1cccc(NC(=O)C2=CC(C)(C)Oc3ccc(OC)cc32)c1 9.7%
Cc1nn(CCO)cc1CN1CCN(C(=O)c2cc[nH]c2)CC(O)C1 (stereo not drawn) -5.58%
CS(=O)(=O)N1CCN2C(=O)N(C3CCCCC3)C[C@H]2C1 1.3% [at 57.5 µM]
OC1(Cn2ccnc2)CCN(Cc2ccccc2Cn2cccn2)CC1 -0.303%
COc1cccc(CN2CCC[C@@H](O)[C@H](NC(=O)c3ccc(OCc4ccccc4)cc3)C2)c1 -6.3%
O=C1CCN(C(=O)c2ccsc2)CCCC(C(=O)N2CCN(c3ccccn3)CC2)CCN1 (stereo not drawn) 0.66%
OCc1nnc(C2CC(Nc3ncnc4ccccc34)C2)n1C1CC1 (stereo not drawn) 6.71%
O=C([C@@H]1CCCN1C(=O)Cn1ccc2ccccc2c1=O)N1CCOCC1 9.35%
CN1CCCCCC(O)c2cc(C(=O)N3CCN(c4ccc(F)cc4)CC3)ccc21 (stereo not drawn) 7.28%
CN1Cc2ccc(C(=O)Nc3ccc4cn[nH]c4c3)cc2OCC1=O 26.3% [at 57.5 µM]
Cc1ncc(C(=O)N2CCC3(CC(=O)NC3=O)C2)c(-c2ccccc2)n1 (stereo not drawn) -4.19%
N[S+](=O)([O-])c1ccc2c(c1)OCCN(Cc1ccccc1Cl)C2 -4.33% [at 57.5 µM]
CC(C)N(Cc1cccc(N2CCN(S(=O)(=O)c3c(Cl)cccc3Cl)CC2)c1F)S(C)(=O)=O 13.9%
Cc1noc(C)c1-c1cnc(Nc2ccncc2)c2c1CCO2 6.5% [at 57.5 µM]
Cn1cccc1-c1noc(C2CCN(C(=O)COc3ccc(F)cc3)CC2)n1 19.1%
O=C(c1nccc2ccccc12)N1CCc2c(nc(-c3ccccc3)[nH]c2=O)C1 12%
COc1ccc(C(=O)N2CCCC3(COc4ccccc4C(=O)N3)C2)cc1 (stereo not drawn) -0.598%
Cn1cc(CN2CCOC[C@H](Oc3ccc(S(C)(=O)=O)cc3)C2)c2ccccc21 39.4% [at 57.5 µM]
O=C1N[C@@H]2CCN(C(=O)c3ccc(-c4ccccc4)cc3)[C@@H]2C(=O)N1Cc1ccccc1 10.9% [at 57.5 µM]
CNC(=O)[C@@H]1C[C@@H](n2cc(CC(C)C)nn2)CN1 19.9%
CC(=O)N1CCCC(c2[nH]ccc2C(=O)N2CCN(c3ccccc3)CC2)C1 (stereo not drawn) -6.69%
Cc1cnc(N2CC[C@](C)(O)[C@@H](O)C2)nc1N(C)C 23%
C=CCN(C)C(=O)C[C@@H]1c2nc(NC(=O)c3ccco3)sc2C[C@@H]2[C@](C)(CO)[C@H](O)CC[C@]21C 20.8%
CCCCNC(=O)[C@H]1CCC[C@H]1NC(=O)c1ccncc1 -1.57%
Cc1noc(C)c1S(=O)(=O)N1CCC2(CC1)CC1C(=O)NCCN1C2 (stereo not drawn) 9.44%
COc1ccc(CNC(=O)C2CCN(Cc3ccccc3-c3ccccc3F)CC2)cc1 21.8%
CCOc1cccc(CN2CCCC(CNC(=O)c3cccc(OC)c3OC)C2)c1 (stereo not drawn) -1.76%
O=C(NC1CCN(Cc2cccc(-c3cccs3)c2)CC1)c1cccc(Cl)c1 18.9%
COc1ccc(-c2ccccc2NC(=O)C2CCCN(CC=C(C)C)C2)cc1 (stereo not drawn) 3.28%
O=C(NCCc1nc2c(s1)CCCC2)C1NCCc2[nH]cnc21 (stereo not drawn) 10.2%
Cc1n[nH]c(C)c1C(N)C(=O)N(Cc1cccnc1)Cc1cccnc1 (stereo not drawn) 10.3%
COc1ccc(Cn2cnc3cccnc32)cc1 59.6% [at 57.5 µM]
Cc1ccc(-c2nnc([C@H]3CCN(C(=O)COc4ccccc4)C3)o2)cc1 13.2% [at 57.5 µM]
CN1C[C@H](NC(=O)c2cnccn2)CCC[C@@H](C(=O)N(C)Cc2cccnc2)CC1=O 42.4% [at 57.5 µM]
COc1ccc(-c2cc(N3CCCC(NC(=O)c4cccc(C)c4)C3)n[nH]2)cc1 (stereo not drawn) 8.29%
CN(Cc1ccccc1C(F)(F)F)C(=O)Nc1ccccc1 -2.22% [at 57.5 µM]
COc1ccc(OC)c(-c2nc3cc4c(cc3cc2CN2CCCOCC2)OCO4)c1 -8.71%
CC1=C[C@@H](CNS(C)(=O)=O)[C@H](C(C)C)C[C@H]1CC(=O)Nc1ccccn1 -0.916% [at 57.5 µM]
CN(CCNc1nc(CCN)nc2ccccc12)S(C)(=O)=O 3.49%
COCC1(CNC(=O)c2nc3ccccc3[nH]2)C[C@@H](O)[C@@H](O)C1 (stereo partly drawn) 36.9% [at 57.5 µM]
O[C@@H]1C[C@@H](c2nc(-c3ccc4c(c3)OCO4)no2)N(Cc2ccc(-c3ccccn3)cc2)C1 10.3%
COc1ccc(-c2cc(C(=O)N3C[C@@H](CN(C)C)[C@@H](CO)C3)[nH]n2)cc1 -8.26%
COc1cccc2c1OCC(C(=O)N1C[C@@H]3[C@H](C1)[C@H]1CC[C@@H]3O1)C2 (stereo partly drawn) 6.78%
O=C(c1ccc(CC2CC(=O)N(c3ccccc3)C2)nc1)N1CCCC1 (stereo not drawn) -0.519%
COCC(=O)N1CCCN(c2nc3ncccc3o2)CC1 26.1% [at 57.5 µM]
O=C(O)c1cccc(-c2cccc(C(F)(F)F)c2)c1 12.5% [at 57.5 µM]
Cc1occc1C(=O)N1CCC2(CCCN(CC3CCCCC3)C2=O)C1 (stereo not drawn) 11.8%
O=C(NC1CCCCCC1)c1ccc(CN2C(=O)NC3(CCS(=O)(=O)CC3)C2=O)cc1 -3.82%
COc1ccc(CN(C)Cc2ccoc2)cc1OCC(O)CN1CCCCC1 (stereo not drawn) -8.55%
O=S(=O)(Nc1cccn2nc(C3CC3)nc12)c1cccnc1 24.3%
Cc1ccc(-c2[nH]ncc2CN2CC[C@@](C)(O)[C@H](N3CCCC3)C2)cc1 -5.46%
CCn1ccc(C(=O)N2CC[C@H](c3nc(C)no3)[C@H](NC(=O)C3CC3)C2)n1 -0.749%
Clc1ccc(-c2cnc3n2C[C@H](CNC2CCCC2)OC3)cc1 -0.737% [at 57.5 µM]
CNC(=O)[C@H]1C[C@H](Oc2ccccc2)CN1S(=O)(=O)c1c(C)noc1C -5.45%
COc1ccc(C(=O)N2CCC([C@@H]3CNC[C@H]3CO)CC2)cc1 -3.89%

Copied from the listing, two compounds:
Activity % (negative = inhibition), inactive:
CNC(=O)[C@@H]1CN(C(=O)CCc2cccc(OC)c2)C[C@H]1c1nc(C)no1 -9.57%
O=C(CN1C(=O)C2(CCNCC2)Nc2ccccc21)NC1CCCCCC1 3.33%

Fetched one by one from the list above (2):
Activity % (negative = inhibition), inactive:
Cc1noc2ncnc(N3CCC4(CC3)CC(c3ccccc3)CN(C)C4)c12 (stereo not drawn) 19.8%
Clc1ccc(-c2cnc3n2C[C@H](CNC2CCCC2)OC3)cc1 -0.737% [at 57.5 µM]

From PubChem BioAssay AID1794845 (National Center for Advancing Translational Sciences (NCATS), 2023)
